Results are given in words; binding and its absence hold for the method and conditions named. In cells and extracts the contact can be indirect. Some results given as binding are weak or reduced against the parent protein; the word gives no strength. For part of these data: Sequences can lack the tags named with a protein.

Sequences of proteins named here, by UniProt entry; tags and fusion partners are left off.
UniProt Q99720: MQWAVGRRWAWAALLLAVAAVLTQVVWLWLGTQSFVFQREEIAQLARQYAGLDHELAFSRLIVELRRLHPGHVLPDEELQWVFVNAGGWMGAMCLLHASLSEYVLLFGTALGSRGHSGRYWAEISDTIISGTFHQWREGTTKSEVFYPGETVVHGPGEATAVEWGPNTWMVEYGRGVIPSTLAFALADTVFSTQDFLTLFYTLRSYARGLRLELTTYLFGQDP
UniProt Q01650: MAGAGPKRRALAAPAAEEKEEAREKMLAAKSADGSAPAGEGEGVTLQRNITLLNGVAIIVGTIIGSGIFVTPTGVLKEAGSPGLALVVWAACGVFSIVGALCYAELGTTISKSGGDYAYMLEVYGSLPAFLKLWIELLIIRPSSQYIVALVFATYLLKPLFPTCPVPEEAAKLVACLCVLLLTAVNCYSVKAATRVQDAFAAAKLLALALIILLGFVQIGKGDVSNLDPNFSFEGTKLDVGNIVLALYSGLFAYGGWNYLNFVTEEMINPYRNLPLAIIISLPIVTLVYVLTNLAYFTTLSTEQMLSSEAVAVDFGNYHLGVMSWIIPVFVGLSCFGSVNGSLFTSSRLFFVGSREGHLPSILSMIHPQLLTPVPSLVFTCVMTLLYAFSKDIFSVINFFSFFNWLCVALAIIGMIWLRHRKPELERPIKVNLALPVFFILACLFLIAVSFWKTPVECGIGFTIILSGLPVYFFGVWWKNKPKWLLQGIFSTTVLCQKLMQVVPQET

The values that follow come from PMC12317982.

In test [1] the target is T1, EMC1-FLAG (human) (UniProt Q8N766).
T1 sequence: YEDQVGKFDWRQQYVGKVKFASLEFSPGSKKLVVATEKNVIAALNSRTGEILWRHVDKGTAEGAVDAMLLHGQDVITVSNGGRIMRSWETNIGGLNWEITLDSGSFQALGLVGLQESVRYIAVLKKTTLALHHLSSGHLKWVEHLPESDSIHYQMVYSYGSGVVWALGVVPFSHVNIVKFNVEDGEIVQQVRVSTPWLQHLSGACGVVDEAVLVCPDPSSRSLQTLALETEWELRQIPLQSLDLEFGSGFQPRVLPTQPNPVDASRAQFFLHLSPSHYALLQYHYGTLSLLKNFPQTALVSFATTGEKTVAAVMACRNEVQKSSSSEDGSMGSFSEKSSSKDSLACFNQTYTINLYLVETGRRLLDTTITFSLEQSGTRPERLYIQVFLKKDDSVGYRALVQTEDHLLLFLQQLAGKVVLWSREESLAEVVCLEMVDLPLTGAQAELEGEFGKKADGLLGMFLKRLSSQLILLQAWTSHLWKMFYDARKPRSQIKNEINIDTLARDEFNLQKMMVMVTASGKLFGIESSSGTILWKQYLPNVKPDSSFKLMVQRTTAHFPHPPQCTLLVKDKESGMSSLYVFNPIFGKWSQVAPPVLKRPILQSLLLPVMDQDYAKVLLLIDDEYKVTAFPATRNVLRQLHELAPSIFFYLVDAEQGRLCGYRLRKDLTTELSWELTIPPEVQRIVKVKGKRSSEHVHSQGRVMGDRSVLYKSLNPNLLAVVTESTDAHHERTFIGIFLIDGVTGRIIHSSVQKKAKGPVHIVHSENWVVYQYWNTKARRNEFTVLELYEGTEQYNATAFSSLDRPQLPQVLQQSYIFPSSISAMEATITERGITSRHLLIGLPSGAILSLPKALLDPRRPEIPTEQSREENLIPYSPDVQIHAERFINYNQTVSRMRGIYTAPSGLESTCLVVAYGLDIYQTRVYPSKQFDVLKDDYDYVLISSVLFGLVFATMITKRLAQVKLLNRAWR
Nature of the test: co-IP; IP against FLAG (EMC1), immunoblot against Strep (clients), normalised to EMC1 wt. In general terms: Immunoblotting shows a protein as a band on a membrane.

Test [2] deals with T1, EMC1-FLAG (human). Put plainly: co-IP; sequential co-IP: Strep (SLC3A2) then FLAG (EMC1), or the reverse order; native elution with desthiobiotin or FLAG peptide between the steps.
The target in another test is SLC3A2, Strep-tagged (UniProt P08195). The description is as above.
Test [3] concerns the target the fraction of SLC3A2 bound to EMC1 (EMC1-bound SLC3A2, isolated by sequential co-IP) (UniProt P08195). Described as above.

On to “SIGMAR1, Strep-tagged (from UniProt Q99720 1-223)”, for which the binding result with EMC1-FLAG (human) [1] is given as “binds”.
Turning to “SLC3A2, Strep-tagged (from UniProt P08195 1-529)”, the binding entry with EMC1-FLAG (human) [2] and in the test with EMC1-FLAG (human) [1] was “binds” in each case.
Regarding “SLC7A5, endogenous (from UniProt Q01650 1-507)”, the binding entry with SLC3A2, Strep-tagged is recorded as “binds”; in test [3], “no binding”; with EMC1-FLAG (human) [2] it was “no binding”.
